# Measured data: PubChem BioAssay AID504793 (Drosophila RNAi Screening Center, 2011)
# Purpose: 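Genes required for cells to halt at G2/M after double-strand DNA breaks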 (primary screen)
# Cell system: Drosophila S2R+ cells
# Reagents: long dsRNA against Drosophila genes, about 0.25 µg dsRNA per well
# Duration: 4 days of dsRNA, then 4 hours of drug before read-out
# Treatment: doxorubicin 0.5 µM for 4 hours to cause double-strand breaks, in cells also given a low, harmless dose of dsRNA against nbs to sensitise the assay
# Detection: 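Per-well count of mitotic cells stained for phospho-histone H3 after doxorubicin exposure, used as mitotic index; counts are raw and not normalised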
# Direction: mitotic cells: higher = more cells in mitosis, weaker G2 arrest
# Rule for the call: 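Genes are called active only when high mitotic counts were reproduced with independent dsRNAs and mitosis was checked for delay without damage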
# Calls: active = confirmed in follow-up tests; inactive = not confirmed
# In all, the deposit lists about 23,000 reagents; this is a random part of those with a known target gene and a result. In the full data, 62 (0.27%) got an active call. 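Calls come from follow-up tests whose scores are not deposited, so confirmed genes may have low counts here; counts are not normalised per plate.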 Raw values vary from plate to plate and are shown uncorrected.
predicted target,dsRNA,"mitotic cells, replicate 1",Outcome
unc-13,DRSC17192,12,inactive
unc-13,DRSC17193,3,inactive
unc-13,DRSC17223,2,inactive
CG10953,DRSC28267,2,inactive
Mur82C,DRSC12011,13,inactive
Mur82C,DRSC12212,12,inactive
Mur82C,DRSC23420,3,inactive
Deaf1,DRSC11143,11,inactive
Deaf1,DRSC22786,24,inactive
Deaf1,DRSC25984,18,inactive
Hpf1,DRSC12202,4,inactive
Dsor1,DRSC18462,5,inactive
Dsor1,DRSC27547,4,inactive
Taf10,DRSC30091,2,inactive
Ktch,DRSC15094,18,inactive
Ktch,DRSC25973,9,inactive
CG4375,DRSC00653,3,inactive
CG4375,DRSC25177,7,inactive
CG3598,DRSC18471,6,inactive
CG3598,DRSC26825,7,inactive
PCNA2,DRSC02030,4,inactive
CG17760,DRSC06694,9,inactive
CG17760,DRSC25493,7,inactive
CG14410,DRSC19596,10,inactive
mib2,DRSC02623,2,inactive
CG10934,DRSC06017,12,inactive
CG13992,DRSC02324,10,inactive
cathD,DRSC07588,6,inactive
conu,DRSC07810,4,inactive
lsn,DRSC16081,11,inactive
lsn,DRSC25700,12,inactive
CG14427,DRSC17921,12,inactive
CG14427,DRSC29421,8,inactive
boil,DRSC17872,6,inactive
esg,DRSC03530,3,inactive
CG3857,DRSC18542,4,inactive
CG3355,DRSC00598,5,inactive
CG14971,DRSC08430,5,inactive
nrv3,DRSC03097,3,inactive
Atg6,DRSC15798,6,inactive
Atg6,DRSC24442,8,inactive
chico,DRSC03531,2,inactive
Gr59c,DRSC04185,2,inactive
Tao,DRSC19573,9,inactive
Tao,DRSC19574,8,inactive
Tao,DRSC22639,13,inactive
Tao,DRSC28431,1,inactive
CG8460,DRSC03090,1,inactive
l(3)mbt,DRSC16983,13,inactive
l(3)mbt,DRSC26103,5,inactive
Ptp4E,DRSC18701,10,inactive
CG8736,DRSC07255,3,inactive
CG8736,DRSC27360,4,inactive
Or59a,DRSC04631,1,inactive
Dop1R1,DRSC13021,5,inactive
Dop1R1,DRSC16652,4,inactive
Dop1R1,DRSC23514,7,inactive
sqz,DRSC16980,9,inactive
sqz,DRSC28971,7,inactive
TrissinR,DRSC02334,6,inactive
TrissinR,DRSC02335,9,inactive
TrissinR,DRSC02336,1,inactive
TrissinR,DRSC25084,4,inactive
TrissinR,DRSC26283,5,inactive
CG5382,DRSC15786,10,inactive
CG15478,DRSC18057,12,inactive
CG15478,DRSC25277,6,inactive
caly,DRSC07182,8,inactive
CG17738,DRSC15257,4,inactive
CG17738,DRSC28474,5,inactive
CG34430,DRSC06499,1,inactive
Gapdh2,DRSC20246,15,inactive
Gapdh2,DRSC24596,11,inactive
CG11257,DRSC06068,7,inactive
CG5280,DRSC10498,3,inactive
CG5280,DRSC22835,10,inactive
CG18294,DRSC09891,2,inactive
dup,DRSC07088,22,inactive
Traf-like,DRSC19894,8,inactive
drk,DRSC07606,2,inactive
drk,DRSC27911,6,inactive
CG31269,DRSC15744,6,inactive
CG31269,DRSC28845,5,inactive
CG13585,DRSC04221,1,inactive
CG18273,DRSC18150,11,inactive
CG18273,DRSC18505,8,inactive
Tret1-1,DRSC07046,2,inactive
Tret1-1,DRSC07048,2,inactive
Tret1-1,DRSC25701,4,inactive
Or47a,DRSC07491,1,inactive
NSD,DRSC15691,17,inactive
rasp,DRSC08191,2,inactive
Tango4,DRSC19786,5,inactive
Tango4,DRSC23475,3,inactive
Lkb1,DRSC16481,11,inactive
Pdp,DRSC17825,3,inactive
Pdp,DRSC26725,4,inactive
Msp300,DRSC00856,6,inactive
Msp300,DRSC00857,14,inactive
Msp300,DRSC00858,5,inactive
Msp300,DRSC02360,5,inactive
Msp300,DRSC03369,3,inactive
Msp300,DRSC03370,5,inactive
CG18088,DRSC02654,1,inactive
CG14853,DRSC14977,17,inactive
CG14853,DRSC21528,18,inactive
edl,DRSC06516,8,inactive
edl,DRSC28035,4,inactive
velo,DRSC08841,5,inactive
velo,DRSC09698,9,inactive
velo,DRSC27497,19,inactive

In a second layout: results already given.
{"predicted target":"dup","dsRNA":"DRSC07088","mitotic cells, replicate 1":22,"Outcome":"inactive"}
{"predicted target":"Traf-like","dsRNA":"DRSC19894","mitotic cells, replicate 1":8,"Outcome":"inactive"}
{"predicted target":"drk","dsRNA":"DRSC07606","mitotic cells, replicate 1":2,"Outcome":"inactive"}
{"predicted target":"drk","dsRNA":"DRSC27911","mitotic cells, replicate 1":6,"Outcome":"inactive"}
{"predicted target":"CG31269","dsRNA":"DRSC15744","mitotic cells, replicate 1":6,"Outcome":"inactive"}
{"predicted target":"CG31269","dsRNA":"DRSC28845","mitotic cells, replicate 1":5,"Outcome":"inactive"}
